The list shows a part of the results.
Experiments:
Test in all cases: NMR binding call after quantification (hit when 2 of 3 NMR criteria are met) (binary (1 = binding, 0 = not binding)); higher = binding
Conditions in all cases: RNA concentration 10 µM; fragment concentration 200 µM; 293 K
SARS-CoV-2 5'-UTR RNA = system: SARS-CoV-2 5'-UTR RNA
SARS-CoV-2 5_SL1 RNA = system: SARS-CoV-2 5_SL1 RNA
SARS-CoV-2 5_SL1234 RNA = system: SARS-CoV-2 5_SL1234 RNA
SARS-CoV-2 5_SL2+3 RNA = system: SARS-CoV-2 5_SL2+3 RNA
SARS-CoV-2 5_SL4 RNA = system: SARS-CoV-2 5_SL4 RNA
SARS-CoV-2 5_SL5 RNA = system: SARS-CoV-2 5_SL5 RNA
SARS-CoV-2 5_SL5a RNA = system: SARS-CoV-2 5_SL5a RNA
SARS-CoV-2 5_SL5b+c RNA = system: SARS-CoV-2 5_SL5b+c RNA
SARS-CoV-2 5_SL5stem RNA = system: SARS-CoV-2 5_SL5stem RNA
SARS-CoV-2 5_SL6 RNA = system: SARS-CoV-2 5_SL6 RNA

Measured: NMR binding call

O=C(NCCc1ccccc1)NC1CCCCC1
0: all assays above

CC(=O)Nc1cnccc1C
0: all assays above

CC(=O)Nc1ccc(Nc2ccccc2)cc1
0: all assays above

CN1CCN(C(=O)C2CCCO2)CC1 (stereo not given)
0: all assays above

Fc1ccccc1NCc1cc[nH]n1
0: all assays above

CCOc1c(F)cccc1C(=O)N(C)C
0: all assays above

COC(=O)Nc1nnc(CC2CCCC2)s1
0: all assays above

CN1CCN(C(=O)Nc2ccccc2)CC1
0: all assays above

Cc1cc(C(=O)NC(C)C)on1
0: all assays above

COCC(=O)Nc1ccc(O)cc1
0: all assays above

Oc1ccc(CN2CCOCC2)c2cccnc12
0: all assays above

Fc1cccnc1NCC1CCOCC1
0: all assays above

CCN(CC)C(=O)c1cc(C)no1
0: all assays above

Oc1ccccc1CN1CCOCC1
0: all assays above

CNC(C)c1cnn(C)c1 (stereo not given)
0: all assays above

CC(C)(C)N1CC(O)C1
0: all assays above

Source: the supplement of paper PMC8426693
